Measurements reported in PubChem BioAssay AID1159578 (Peter MacCallum Cancer Centre, 2015).
Purpose: 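Knock-downs that alter how fast lymphatic endothelial cells migrate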 (primary screen). Cells: human lymphatic endothelial cells. Reagents: siRNA pool against human genes, 40 nM. Duration: 48 h after transfection. Read-out: 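Cells stained with dye and imaged after a scratch; covered wound area and nuclei counted, duplicates averaged, migration set against mock wells and turned into a robust z-score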. Direction: migration robust z-score: higher = faster migration into the scratch; nuclei per well: higher = more cells in the well. Rule for the call: 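Pools averaging fewer than 3300 nuclei are never called; remaining pools count as changed when migration robust z lies outside -2 to 2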. Meaning of the calls: active = migration changed; inactive = no migration change, or too few cells.
The deposit covers about 18,000 reagents; shown is a random part of them. About 1,030 of all reagents (5.7%) count as active. 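Inactive calls also include pools with fewer than 3300 nuclei, whose migration was not assessed.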 Raw values are not corrected between plates. Entries without a mark were called inactive. Not all columns of the deposit are shown.

SUPV3L1 — migration robust z-score = 1.09; migration class with cell-count check = migration z between -2 and 2; enough cells; nuclei per well, duplicate mean = 6112
DEFB125 — migration robust z-score = 0.1; migration class with cell-count check = migration z between -2 and 2; enough cells; nuclei per well, duplicate mean = 5810
CNN3 — migration robust z-score = 0.7; migration class with cell-count check = migration z between -2 and 2; enough cells; nuclei per well, duplicate mean = 5252
H1-3 — migration robust z-score = 1.1; migration class with cell-count check = migration z between -2 and 2; enough cells; nuclei per well, duplicate mean = 6002
SCRT2 — migration robust z-score = -0.11; migration class with cell-count check = under 3300 nuclei; migration not judged; nuclei per well, duplicate mean = 2767
PLCB4 — migration robust z-score = -0.78; migration class with cell-count check = migration z between -2 and 2; enough cells; nuclei per well, duplicate mean = 5239
RASL10B — migration robust z-score = -0.16; migration class with cell-count check = migration z between -2 and 2; enough cells; nuclei per well, duplicate mean = 6462
MELK — migration robust z-score = 1.12; migration class with cell-count check = migration z between -2 and 2; enough cells; nuclei per well, duplicate mean = 5929
B4GALT3 — migration robust z-score = 0.11; migration class with cell-count check = migration z between -2 and 2; enough cells; nuclei per well, duplicate mean = 5632
KDF1 — migration robust z-score = -3.67; migration class with cell-count check = under 3300 nuclei; migration not judged; nuclei per well, duplicate mean = 3088
ANK1 — migration robust z-score = -0.17; migration class with cell-count check = migration z between -2 and 2; enough cells; nuclei per well, duplicate mean = 5746
DHRS13 — migration robust z-score = -1.04; migration class with cell-count check = migration z between -2 and 2; enough cells; nuclei per well, duplicate mean = 5134
PRDX5 — migration robust z-score = 0.62; migration class with cell-count check = migration z between -2 and 2; enough cells; nuclei per well, duplicate mean = 6341
ZNF26 — migration robust z-score = -0.48; migration class with cell-count check = migration z between -2 and 2; enough cells; nuclei per well, duplicate mean = 6150
C1QTNF9 — migration robust z-score = 0.28; migration class with cell-count check = migration z between -2 and 2; enough cells; nuclei per well, duplicate mean = 5888
BARD1 — migration robust z-score = -0.08; migration class with cell-count check = migration z between -2 and 2; enough cells; nuclei per well, duplicate mean = 5532
NPY1R — migration robust z-score = 0.31; migration class with cell-count check = migration z between -2 and 2; enough cells; nuclei per well, duplicate mean = 6201
PRB3 — migration robust z-score = 0.56; migration class with cell-count check = migration z between -2 and 2; enough cells; nuclei per well, duplicate mean = 5239
CRNKL1 — migration robust z-score = -0.31; migration class with cell-count check = migration z between -2 and 2; enough cells; nuclei per well, duplicate mean = 5158
PPP2R3B — migration robust z-score = 0.7; migration class with cell-count check = migration z between -2 and 2; enough cells; nuclei per well, duplicate mean = 3766
DCTN5 — migration robust z-score = -0.15; migration class with cell-count check = under 3300 nuclei; migration not judged; nuclei per well, duplicate mean = 2920

3 entries from above, set out differently:
{"gene knocked down": "B4GALT3", "migration robust z-score": 0.11, "migration class with cell-count check": "migration z between -2 and 2; enough cells", "nuclei per well, duplicate mean": 5632}
{"gene knocked down": "KDF1", "migration robust z-score": -3.67, "migration class with cell-count check": "under 3300 nuclei; migration not judged", "nuclei per well, duplicate mean": 3088}
{"gene knocked down": "ANK1", "migration robust z-score": -0.17, "migration class with cell-count check": "migration z between -2 and 2; enough cells", "nuclei per well, duplicate mean": 5746}
